Measurements reported in patent publication EP1224288B1.

Legend:
[1] = molecular target: T1, chemokine receptor CCR3 (human) (UniProt P51677); assay: radioligand binding, membranes of CHO-K1 cells expressing CCR3
T1 sequence (looked up): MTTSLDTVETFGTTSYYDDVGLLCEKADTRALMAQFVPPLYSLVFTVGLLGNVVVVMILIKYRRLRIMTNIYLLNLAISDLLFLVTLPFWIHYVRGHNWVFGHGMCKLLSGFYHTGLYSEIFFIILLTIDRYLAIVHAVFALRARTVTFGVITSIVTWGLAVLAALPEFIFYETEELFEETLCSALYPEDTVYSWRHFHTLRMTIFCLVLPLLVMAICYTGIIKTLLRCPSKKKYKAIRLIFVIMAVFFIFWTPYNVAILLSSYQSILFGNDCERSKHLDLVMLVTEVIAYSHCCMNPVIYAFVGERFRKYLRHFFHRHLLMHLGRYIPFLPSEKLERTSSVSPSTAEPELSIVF

[2] = molecular target: T2, chemokine receptor CCR1 (human) (UniProt P32246); assay: radioligand binding, membranes of CHO-K1 cells expressing CCR1
T2 sequence (looked up): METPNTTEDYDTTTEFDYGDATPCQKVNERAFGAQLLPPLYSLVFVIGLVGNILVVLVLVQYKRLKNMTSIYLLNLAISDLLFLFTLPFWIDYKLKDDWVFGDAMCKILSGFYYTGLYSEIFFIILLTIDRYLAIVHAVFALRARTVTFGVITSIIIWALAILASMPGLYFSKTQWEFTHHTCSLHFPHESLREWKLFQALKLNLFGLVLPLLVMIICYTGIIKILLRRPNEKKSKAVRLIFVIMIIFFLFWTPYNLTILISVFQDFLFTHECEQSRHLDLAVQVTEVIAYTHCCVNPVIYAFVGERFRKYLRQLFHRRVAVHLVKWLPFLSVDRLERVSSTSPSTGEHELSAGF

binding [1]: binds
binding [2]: binds
Substance: processed chemokine PHC-1 (HCC-1, residues 9-74) (ligand)

No constants are given. Whether binding was seen depends on the method and setting. A result given as binding can be weak or reduced; the word gives no strength.
